# Laboratory results reported in PubChem BioAssay AID901 (National Center for Advancing Translational Sciences (NCATS), 2007).
# The list shows a part of the results. Shown are side measurements of this screen, not its main read-out; they come without a call. Compounds called inactive in the main read-out are mostly missing here. Words in brackets tell the shape of the fitted curve; partial curves, single points and poor fits give uncertain potencies.
# Assay: qHTS Assay for Identifying the Cell-Membrane Permeable IMPase Inhibitors
# Conditions: CHO-M1 cells, IP1 accumulation, HTRF TR-FRET ratio; measured here: donor channel 620 nm AC50
# Text: NCGC IMPase Assay Overview
# Lithium has been widely used for the treatment of bipolar disorder. But lithium has a narrow therapeutic index and it can cause side effects such as thirst, weight gain, tremor, polyuria and memory problems. Although the mechanism for lithium action in treatment of bipolar disorder is still not fully understood, inhibition of inositol monophosphatase (IMPase) and the subsequent depletion of the inositol pool in living cells have been implicated as the primary therapeutic benefit of lithium therapy. Therefore, a selective IMPase inhibitor with reduced side effects might be a good drug candidate to replace lithium for the treatment of bipolar disorder. Several IMPase inhibitors have been discovered previously. However, they are not suitable for therapeutic use because of their poor cell membrane penetrability or oral bioavailability; the development of new cell-permeable IMPase inhibitors is needed.
# IMPase catalyzes the hydrolysis of inositol-1-phosphate (IP1) to release free inositol. Binding of an agonist to a Gq coupled GPCR results in the activation of PLC, which hydrolyzes the PIP2 to form inositol-1,4,5-trisphosphate (IP3) and diacyl glycerol (DAG). While DAG activates protein kinase C (PKC), IP3 triggers the elevation of intracellular free Ca2+. The IP3 is very rapidly inactivated by hydrolysis to IP2, IP1 and then inositol by a series of enzymes including IMPase. Free inositols are used for synthesis of PI and thus start another inositol cycle.
# To identify new cell-permeable IMPase inhibitors, we developed a cell-based IMPase assay in which the cytosolic IP1 is measured by a time-resolved fluorescence resonance energy transfer (TR-FRET) assay. In this assay, an IP1 specific antibody is used to detect the labeled IP1 tracer. When the cell lysate contains the elevated IP1 due to the inhibition of IMPase, the TR-FRET between the labeled antibody and IP1 tracer is disrupted resulting in a reduction in the total signal. Since the TR-FRET is used, this cell-based assay is a homogenous assay without cell wash and medium change that is suitable for assay miniaturization and HTS.
# NCGC IMPase Assay Protocol Summary
# A Chinese hamster ovary (CHO) cell line stably expressing the M1 receptor (CHO-M1) was obtained from ATCC and maintained in F-12 Kaighn's media (Invitrogen, Carlsbad, CA, 21127) supplemented with 10 % FBS, 100 units/ml penicillin, 100 ug/ml streptomycin and 250 ug/ml geneticin at 37C, 5% CO2 in a humidified atmosphere. Before the assay, aliquots of cells were frozen and stored at -135C. The assay was performed in 1536-well format. Data are reported for both the ratio of the two emission wavelengths, and also for the component 'donor' channel, Em2=620. […] AC50 values were determined from concentration-response data modeled with the standard Hill equation.
# IMPase 1536-well assay protocol:
# (1) Plate 4 ul/well (2000 cells) of cell suspension from frozen CHO-M1 Cells in white, tissue culture treated 1536-well plates that are cultured at 37C, 5 % CO2 for 16 to 30 hours.
# (2) Add 23 nl/well of compound in DMSO solution. The final titration for each compound was between 0.6 nM and 46 uM.
# (3) Add 1 ul of carbachol (50 uM in stimulation buffer containing10mM HEPES, 1mM CaCl2, 0.5 mM MgCl2, 4.2 mM KCl, 146 mM NaCl, 5.5 mM glucose, 50mM LiCl, pH 7.4.
# (4) Incubation at 37C, 5 % CO2 for 30 min.
# (5) Add 1 ul/well of d2-conjugated IP1 (d2-IP1) and 1 ul/well of Eu+ cryptate conjugated anti-IP1 antibody (Eu+-Ab) prepared in the cell lysis buffer, both from the IP-One kit (Cisbio, MA).
# (6) Incubate at room temperature for 10 minutes.
# (7) Detect the assay plate (Ex = 320, Em1 =665 and Em2 620) in a ViewLux plate reader.
# inositol monophosphatase, IMPase, IMPase inhibitor, lithium, bipolar disorder, IP-One, HTRF, qHTS, NIH roadmap, NCGC
# Note: In the gene ID and protein GI references for this assay, rat IMPase is referenced instead of hampster as hamster accession numbers were not available.
row,SMILES,AC50
1,COCCn1c(C)cc(C(=O)CSc2nnc(C)s2)c1C,"35500 nM [falling, single point]"
2,CCOC(=O)CSc1nc(-c2ccncc2)ccc1C#N,"501 nM [falling, partial curve]"
3,COc1ccc(-n2[nH]c(C)cc2=O)cc1,"251 nM [falling, full curve]"
4,CN(C)C(=O)Cn1c(SCC(=O)Nc2ccc3c(c2)OCO3)nc2ccccc21,"794 nM [falling, full curve]"
5,COc1ccc(CCNC(=O)C(=O)NCC2CCCO2)cc1 (stereo not drawn),"1000 nM [falling, full curve]"
6,N#Cc1ccc(Oc2cc(C(F)(F)F)nc(-c3ccccn3)n2)cc1,"398 nM [rising, full curve]"
7,CN(C)CCN1C(=O)c2oc3ccc(F)cc3c(=O)c2C1c1ccncc1 (stereo not drawn),"200 nM [rising, full curve, poor fit]"
8,CN(C)CCN1C(=O)C(O)=C(C(=O)c2cc3ccccc3o2)C1c1cccc(Br)c1 (stereo not drawn),"12600 nM [rising, partial curve]"
9,Cc1c(CN(C)C(=O)c2cc(-c3ccccc3)nc3ccc(Br)cc23)cnn1C,"10000 nM [rising, partial curve]"
10,Cc1occc1C(=O)NNC(=O)Nc1ccc(F)cc1F,"28.2 nM [falling, full curve, poor fit]"
11,Cc1c(-c2ccc(Cl)cc2)oc(=O)c2c(N)n(-c3ccccc3)nc12,"12600 nM [rising, single point]"
12,CCOc1ccc(C(=O)Nc2ccc3oc(-c4cccc5ccccc45)nc3c2)cc1,"1120 nM [falling, partial curve, poor fit]"
13,Cc1cc2cc(CNC(=O)c3ccc(S(=O)(=O)N4CCCCC4)cc3)ccc2n1C,"20000 nM [rising, single point]"
14,O=C1CNC(=O)/C1=C\N1CCCCC1,"501 nM [falling, single point]"
15,CCn1nc(NC(=O)c2cccnc2)c2cc3cccc(C)c3nc21,"63.1 nM [rising, full curve, poor fit]"
16,CCC(C)NC(=O)CSc1nnc(-c2cc(-c3ccc(C)cc3)nc3ccccc23)n1N (stereo not drawn),"3160 nM [rising, single point]"
17,Cc1csc(NC(=O)COc2ccc3c(C)cc(=O)oc3c2)n1,"1000 nM [falling, partial curve, poor fit]"
18,Cc1cc(C)c2oc(-c3cc(NC(=O)Cc4ccccc4)ccc3Cl)nc2c1,"8.91 nM [falling, full curve, poor fit]"
19,COc1ccc(-c2nnc(-c3cc(OC)c(OC)c(OC)c3)o2)cc1OC,"12600 nM [falling, partial curve]"
20,O=c1c2ccccc2sc2ccc(Cl)cc12,"31600 nM [rising, single point]"
21,CC1=C(C(=O)N(C)C)C(c2cccs2)NC(=O)N1 (stereo not drawn),"100 nM [falling, full curve]"
22,CC(C)n1c(NCCc2ccccc2)nc2c1c(=O)n(C)c(=O)n2C,"89.1 nM [falling, full curve, poor fit]"
23,CCOC(=O)C1=C(c2ccccc2)NC(=O)NC1c1ccc(OCC#N)c(OC)c1 (stereo not drawn),"31600 nM [rising, single point]"

# Arranged by molecular weight (low to high): part of the list above.
row,SMILES,AC50
10,Cc1occc1C(=O)NNC(=O)Nc1ccc(F)cc1F,"28.2 nM [falling, full curve, poor fit]"
5,COc1ccc(CCNC(=O)C(=O)NCC2CCCO2)cc1 (stereo not drawn),"1000 nM [falling, full curve]"
22,CC(C)n1c(NCCc2ccccc2)nc2c1c(=O)n(C)c(=O)n2C,"89.1 nM [falling, full curve, poor fit]"
18,Cc1cc(C)c2oc(-c3cc(NC(=O)Cc4ccccc4)ccc3Cl)nc2c1,"8.91 nM [falling, full curve, poor fit]"
23,CCOC(=O)C1=C(c2ccccc2)NC(=O)NC1c1ccc(OCC#N)c(OC)c1 (stereo not drawn),"31600 nM [rising, single point]"
16,CCC(C)NC(=O)CSc1nnc(-c2cc(-c3ccc(C)cc3)nc3ccccc23)n1N (stereo not drawn),"3160 nM [rising, single point]"

# The listing continues.

row,SMILES,AC50
1,Cc1ccc(-n2c(N)c(C#N)c(-c3ccc(Cl)cc3)c(C#N)c2=O)cc1,"31600 nM [falling, single point]"
2,CCOc1ccc(/C(O)=C2/C(=O)C(=O)N(CCOCCO)C2c2ccc(F)cc2)cc1 (stereo not drawn),"12600 nM [rising, partial curve]"
3,CSc1cnn(-c2ccccc2)c(=O)c1SC,"20000 nM [rising, single point]"
4,Nn1c(SC/C=C/c2ccccc2)nnc1-c1ccccn1,"25.1 nM [rising, full curve, poor fit]"
5,COc1ccc(-n2nnnc2SCC(=O)N2CCCC2)cc1OC,"5.01 nM [rising, full curve, poor fit]"
6,COC(=O)CN(c1ccccc1F)S(=O)(=O)c1ccccc1,"3980 nM [falling, full curve, poor fit]"
7,Cc1nc2ccccc2n1/C(=N\S(=O)(=O)c1ccccc1)c1ccccc1,"15800 nM [rising, partial curve, poor fit]"
8,COc1ccccc1N1CCN(C(=O)C(Sc2ccccc2)c2ccccc2)CC1 (stereo not drawn),"31.6 nM [rising, full curve, poor fit]"
9,Cc1ccc(Cn2c(C(=O)NCCCN3CCOCC3)cc3sccc32)cc1,"5620 nM [falling, single point]"
10,COC(=O)C1C(=O)NCC1c1ccccc1 (stereo not drawn),"5010 nM [falling, single point]"
11,CCOC(=O)c1c(-c2ccccc2)nnn1-c1nc(OC)nc(N2CCOCC2)n1,"158 nM [falling, partial curve, poor fit]"
12,O=C(CCCc1nc(-c2ccccc2Cl)no1)NC1CCCCC1,"6310 nM [rising, single point]"
13,COCCNC(=O)COC(=O)/C=C/c1c(C)nn(Cc2ccc(Cl)cc2Cl)c1Cl,"2510 nM [rising, full curve]"
14,Clc1ccccc1Sc1cnc2ccccc2n1,"20000 nM [rising, single point]"
15,O=C1N=C(N2CCCC2)S/C1=C\c1ccccc1,"200 nM [rising, single point]"
16,CC(C)(C)c1ccc(C(=O)c2c[nH]c(C(=O)NCc3cccs3)c2)cc1,"12.6 nM [rising, full curve, poor fit]"
17,COc1ccccc1-c1n[nH]c(=S)n1-c1ccccc1,"15800 nM [rising, partial curve]"
18,CCCCNC(=O)c1sc(=S)n(-c2ccccc2OC)c1N,"100 nM [falling, full curve, poor fit]"
19,O=C(c1cccc(S(=O)(=O)Nc2cccc(C(F)(F)F)c2)c1)N1CCCCC1,"22.4 nM [falling, full curve, poor fit]"
20,c1ccc(-c2nc(-n3nc4ccccc4n3)nc3ccccc23)cc1,"25100 nM [rising, partial curve]"
21,COc1ccc(Br)c2c1-c1nc(NC(=O)c3ccccc3SC)sc1C2,"126 nM [falling, single point]"
22,Cn1c2c(c(=O)n(C)c1=O)C(c1ccccc1OC(F)F)C1=C(CCCC1=O)N2 (stereo not drawn),"31600 nM [falling, single point]"
23,COc1ccccc1C(=O)NCCc1nc2ccccc2[nH]1,"794 nM [falling, full curve, poor fit]"

row,SMILES,AC50
1,Cc1ccc(-c2[nH]c(=O)n3ccncc23)s1,"20000 nM [falling, single point]"
2,O=C(Nc1cc2c(cc1Br)OCCO2)c1ccco1,"251 nM [falling, full curve]"
3,Cc1ccc(C(=O)/C=C2/NC(=O)CS2)cc1,"251 nM [rising, single point]"
4,CC(C)n1c(SCc2ccc(Cl)cc2)nc2c1c(=O)[nH]c(=O)n2C,"15800 nM [falling, partial curve, poor fit]"
5,O=C(NCc1nc(-c2ccccc2)no1)c1cccs1,"25100 nM [falling, partial curve]"
6,COc1ccc(C(=O)N(CC2CCCO2)C(C(=O)NC2CCCC2)c2ccc(Cl)cc2)cc1OC (stereo not drawn),"158 nM [falling, partial curve]"
7,Cc1cc(C)c(C#N)c(SCC2COc3ccccc3O2)n1 (stereo not drawn),"6310 nM [falling, full curve, poor fit]"
8,c1ccc(CSc2n[nH]c(-c3ccco3)n2)cc1,"3550 nM [falling, single point]"
9,O=C(CSc1nnc(CNc2ccc(F)cc2)n1Cc1ccco1)N1CCOCC1,"1000 nM [falling, full curve, poor fit]"
10,CCc1c(C)c2cc(Cl)c(O)c(CN(C)C)c2oc1=O,"3160 nM [rising, single point]"
11,COC(=O)CCN(C)CCC(=O)OC,"10 nM [falling, full curve, poor fit]"
12,COc1ccc(Cl)cc1-n1c(=S)sc2c(=O)[nH]c(SCC(=O)NCC3CCCO3)nc21 (stereo not drawn),"158 nM [falling, full curve, poor fit]"
13,CSCCC(NC(=O)c1ccco1)C(=O)OCC(=O)Nc1sccc1C#N (stereo not drawn),"31.6 nM [rising, full curve, poor fit]"
14,Cc1cc(=S)cc(C)n1CCCO,"316 nM [rising, full curve, poor fit]"
15,Nn1c(SCc2cccc3ccccc23)nnc1-c1ccco1,"10 nM [rising, full curve, poor fit]"
16,CCS(=O)(=O)N1CCN(S(=O)(=O)c2ccc(F)cc2)CC1,"1000 nM [falling, full curve]"
17,CCCCCCCCN=C1NC(=O)CS1,"3160 nM [falling, single point]"
18,COc1ccc(OC)c(NC(=O)C2C3C=CC(C3)C2C(=O)NCc2ccccn2)c1 (stereo not drawn),"31600 nM [falling, single point]"
19,CC1(C)N=C(c2ccc(Cl)cc2Cl)C(=O)N1,"12.6 nM [rising, full curve, poor fit]"
20,CC(C)(C)C1CCc2c(sc(NC(=O)C3CCCO3)c2C(N)=O)C1 (stereo not drawn),"12600 nM [rising, single point]"
21,COc1ccc(CN(Cc2ccccn2)C(=O)CN2C(=O)C(C)Oc3ccccc32)cc1 (stereo not drawn),"3160 nM [rising, full curve]"
22,COc1cccc(C2CC(C(F)(F)F)n3ncc(C(=O)Nc4c(C)n(C)n(-c5ccccc5)c4=O)c3N2)c1 (stereo not drawn),"3980 nM [falling, partial curve, poor fit]"
